# Structures can show the parent of a compound that is named as a salt. At least one structure is not confirmed: it was looked up by name or label, or the drawing left a doubt. Numbered stars: 1 amine (or outer) side, 2 acyl side, 3 side chain; on linkers, the order of the positions; unused ones are H or OH. Peptide text beside a SMILES is read from it. CO = O=C([*:1])[*:2]
# Columns and labels:
# papain = target: T1, papain (Carica papaya, UniProt P00784); test: Papain protease inhibition (Abz FRET substrate); format: biochemical; conditions: control inhibitor at 3.5 μM
# T1 construct: purchased Sigma-Aldrich
# T1 sequence (P00784 134-345): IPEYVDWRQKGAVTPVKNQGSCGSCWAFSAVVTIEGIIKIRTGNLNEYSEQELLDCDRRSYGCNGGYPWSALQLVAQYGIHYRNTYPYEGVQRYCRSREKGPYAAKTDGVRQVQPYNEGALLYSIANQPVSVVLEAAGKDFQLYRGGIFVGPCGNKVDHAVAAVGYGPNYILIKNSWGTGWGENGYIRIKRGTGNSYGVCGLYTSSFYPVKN
# Method: (§1) Trypsin and papain protease inhibition—An Abz FRET substrate (Abz-RRRRSAG-nTyr) developed previously (Li et al., “Existing Drugs as Broad-Spectrum and Potent Inhibitors for Zika Virus by Targeting NS2B-NS3 Interaction,” Cell Research 27(8):1046-1064 (2017), which is hereby incorporated by reference in its entirety) was used as the substrate for inhibition of trypsin and papain proteases. In black and clear-bottom 96-well plates, 1 μg trypsin (Sigma-Aldrich) was incubated with DMF or compounds at 400 μM at 25° C. for 30 min in a 70 μl reaction buffer containing 20 mM Tris, pH 8.0, 100 mM NaCl, 5% Glycerol, and 0.05% CHAPS. For papain, 1 μg Papain (Sigma-Aldrich) was incubated with compounds at 400 μM at 25° C. for 30 min in a 70 μl reaction buffer composed of 1.1 mM EDTA, 0.067 mM β-mercaptoethanol, 5.5 mM cysteine. […]
# trypsin = test: Trypsin protease inhibition (Abz FRET substrate); format: biochemical; conditions: control inhibitor at 3.5 μM
# Method: as §1
compound,measurement,setting,value
"CC(C)[C@H](NC(=O)[C@H](CCCNC(=N)N)NC(=O)N[C@@H](Cc1ccccc1)C(=O)O)C(=O)N[C@H](C=O)CCCNC(=N)N [AP-2HCl, antipain dihydrochloride, reference compound] ({Phe-CO}-Arg-Val-Arg-aldehyde)",inhibition of papain protease activity,papain,completely abolished the protease activities
same,inhibition of trypsin protease activity,trypsin,completely abolished the protease activities

# — US20230233533A1, “COMPOSITIONS, METHODS OF TREATING AND PREVENTING FUNGAL INFECTIONS, AND METHODS OF INHIBITING PRP8 INTEIN EXPRESSION” (Health Research, Inc., priority 2020, published 2023)
